Results published in paper PMC8176713.
No constants are given. Whether binding was seen depends on the method and setting. Binding seen in cells or lysates may run through a third protein. A result given as binding can be weak or reduced; the word gives no strength. Where a sequence is shown, tags or fusion partners need not be part of it.

Sequences of proteins named here, by UniProt entry; tags and fusion partners are left off. A change or cut given only in a name is not applied to a line headed by its entry.
UniProt P36142: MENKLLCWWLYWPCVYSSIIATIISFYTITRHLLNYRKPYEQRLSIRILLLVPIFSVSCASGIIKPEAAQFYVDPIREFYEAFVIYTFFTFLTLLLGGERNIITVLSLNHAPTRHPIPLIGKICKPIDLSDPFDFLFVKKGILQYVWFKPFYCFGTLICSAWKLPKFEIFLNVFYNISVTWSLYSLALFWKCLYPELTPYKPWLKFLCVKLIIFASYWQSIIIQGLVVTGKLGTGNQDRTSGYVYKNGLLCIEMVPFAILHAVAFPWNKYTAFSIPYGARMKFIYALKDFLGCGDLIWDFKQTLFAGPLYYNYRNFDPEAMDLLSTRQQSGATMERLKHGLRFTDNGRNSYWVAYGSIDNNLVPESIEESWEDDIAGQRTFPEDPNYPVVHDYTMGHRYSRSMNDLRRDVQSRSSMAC

Target: Hfl1-GFP with W371 mutated alone (S. cerevisiae) (UniProt P36142)
Test: co-IP; lysates of log phase yeast co-expressing Hfl1-GFP (TEF1 promoter) and 8 V5-Atg8 (own promoter) loaded on anti-GFP affinity resin, 4C, 2 h; lysis buffer 50 mM Tris-Cl, 150 mM NaCl, 10% glycerol, 1 mM EDTA, 1 mM PMSF, 0.2% NP-40, pH 7.4; immunoblot

B1: 8 V5-Atg8 (protein, UniProt P38182 1-117)
chain: MKSTFKSEYPFEKRKAESERIADRFKNRIPVICEKAEKSDIPEIDKRKYLVPADLTVGQFVYVIRKRIMLPPEKAIFIFVNDTLPPTAALMSAIYQEHKDKDGFLYVTYSGENTFGR
binding: binds
